No constants are given. Whether binding was seen depends on the method and setting.

Sequences of proteins named here, by UniProt entry; tags and fusion partners are left off. A change or cut given only in a name is not applied to a line headed by its entry. Residues count along the entry.
UniProt P68874, residues 552-731: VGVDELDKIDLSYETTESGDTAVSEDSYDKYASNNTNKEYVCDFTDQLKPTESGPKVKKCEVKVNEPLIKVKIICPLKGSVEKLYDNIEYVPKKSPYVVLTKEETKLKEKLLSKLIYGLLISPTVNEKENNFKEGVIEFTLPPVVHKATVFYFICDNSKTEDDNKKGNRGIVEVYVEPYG

The target of this experiment is engineering lot of Pfs230D1+ protein (Plasmodium falciparum 3D7) (UniProt P68874). Kind of experiment: SEC; Size Exclusion Chromatography HPLC (SEC-HPLC) of the purified engineering lot; percent of monomer; methods as in ref. 17; both purified.

For the substance “engineering lot of Pfs230D1+ protein (from UniProt P68874 552-731) (domain or fragment)”, the binding result was “no binding”.

For the origin of these results see paper PMC9607959.
